From PubChem BioAssay AID1347075 (National Center for Advancing Translational Sciences (NCATS), 2019)
Out of some 400,000 compounds screened, about 5,500 (1.4%) were called active. Inconclusive means that the source gave no clear call. Such entries were picked first, then a sample of the others. Calls follow the shape of the dose curve; as a rule, active = well fitted cell-killing curve with a large enough effect; inconclusive = small, poorly fitted or top-dose-only effect, or effect the other way; inactive = flat fitted curve, though single readings scatter. A potency beside an inconclusive call is a rough fit, not a confirmed value.
% is scaled to controls: 0 for no effect and ±100 for the full control effect; potency is read from the fitted curve at half-maximal effect.

Experiment: qHTS assay for MDR1-selective chemotherapeutics: Primary screen using the parental adenocarcinoma cell KB-3-1; also: nearly all actives have a fitted effect of over 60% in size
Settings: KB-3-1 viability, CellTiter-Glo ATP luminescence, 72 h; activity change, negative = cytotoxic: at 46.1 µM (top of the series)
Method in brief: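 72 h, 37 °C compound treatment of KB-3-1 parental cells; CellTiter-Glo added, 10 min, luminescence read. Data corrected against DMSO-only plates and normalized before curve fitting.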
With `O=C(NCCN1CCOCC1)c1cc(-c2ccc(F)cc2)nc2ccccc12` the Potency was inconclusive: 16.4 µM [rising, single point].
With `COc1ccc(CC(=O)NCc2ccc3c(c2)CCN3C(=O)c2ccc(Cl)cc2)cc1` the Potency was “inactive”.
With `Cc1cccc(Cc2c(C)nc3nc(SCC(=O)NCc4ccccc4)nn3c2C)c1` the Potency was active: 14.6 µM.
With `CC(C)Oc1ccc(CNC(=O)c2cccc(NC(=O)N3CCSc4ncccc43)c2)cc1` the Potency was “inactive”.
With `CSCC[C@H](NC(=O)OC(C)(C)C)c1nnc(SCc2ccccc2)o1` the Potency was inconclusive: 23.1 µM [cytotoxic, single point].
For `COC(C[C@@H]1O[C@H]1C(=O)[C@@H](C)OCc1ccccc1)OC`, the Potency was inconclusive: 20.6 µM [cytotoxic, single point].
With `Cn1c(=O)c2c(nc(CN3CCc4ccccc4C3)n2Cc2ccccc2)n(C)c1=O` the Potency was active: 11.6 µM.
For `CN(CCOc1ccccc1)CC(=O)Nc1cc([N+](=O)[O-])ccc1Cl`, the Potency was “inactive”.
For `N#C/C(=C\C=C\c1ccccc1)C(=O)NCc1cccnc1`, the Potency was inconclusive: 18.4 µM [cytotoxic, single point].
In the case of `C[C@H](c1ccccc1)N1C[C@H](COCc2ccccc2)Oc2cc(N3CC[C@H](N(C)C)C3)ccc2S1(=O)=O`, the Potency is reported as inconclusive: 29.1 µM [cytotoxic, single point].
For `CCCCC(Sc1ccc2nnc(-c3ccccn3)n2n1)C(=O)O` (stereo not given), the Potency was inconclusive: 20.6 µM [rising, partial curve].
With `CC(=O)Nc1ccc(CN(C)c2c(C)nc3ccc(C(=O)Nc4ccc(Cl)c(Cl)c4)cn23)cc1` the Potency was inconclusive: 32.6 µM [cytotoxic, single point].
In the case of `CC(=O)Oc1ccc(C23c4ccccc4C2(OC(C)=O)c2cc(OC(C)=O)ccc23)cc1` (stereo not given), the Potency is reported as inconclusive: 29.1 µM [cytotoxic, single point].
With `CCCc1cnc(N2CCN(C(=O)c3ccc(OC)cc3)CC2)nc1` the Potency was inconclusive: 16.4 µM [cytotoxic, single point].
For `O=C1NC2c3c(I)sc(I)c3C(=O)C2O1` (stereo not given), the Potency was inconclusive: 29.1 µM [cytotoxic, single point].
In the case of `COc1ccc(OC)c(COC(=O)c2cc([N+](=O)[O-])ccc2N2CCOCC2)c1`, the Potency is reported as active: 5.17 µM.
With `CCN(CC)C(=O)c1ccccc1NC(=O)c1ccccc1C` the Potency was inconclusive: 29.1 µM [cytotoxic, single point].
With `Cc1c(NS(=O)(=O)c2cc(C(=O)N(C)Cc3ccccc3)ccc2Cl)c(=O)n(-c2ccccc2)n1C` the Potency was “inactive”.
With `COc1cc(OC)c2c(-c3cccc(-c4ccc(OC)c(F)c4)c3)cc(=O)oc2c1` the Potency was active: 0.92 µM.
For `COc1ccc2c(c1OC)OCC2C` (stereo not given), the Potency was inconclusive: 29.1 µM [cytotoxic, single point].
In the case of `Cc1cc(NC(=O)c2ccoc2C)ccc1Br`, the Potency is reported as inconclusive: 29.1 µM [cytotoxic, single point].
With `COc1ccc(NC(=O)Cn2ncc3c2-c2ccccc2OC3)cc1Cl` the Potency was inconclusive: 18.4 µM [cytotoxic, partial curve, poor fit].
For `COc1ccc(-n2nnnc2SCC(=O)c2cc3ccccc3o2)cc1`, the Potency was inconclusive: 20.6 µM [cytotoxic, single point].
In the case of `COc1cc2c(cc1OC)C1=C(C#N)CCC(=O)N1CC2`, the Potency is reported as active: 16.4 µM.
For `CC(=O)N1c2ccc(S(=O)(=O)NCCC(=O)Nc3ccc(Br)c(C)c3)cc2CC1C` (stereo not given), the Potency was inconclusive: 23.1 µM [cytotoxic, single point].
For `O=C(NNC(=O)c1ccccc1O)c1cccc(Br)c1`, the Potency was inconclusive: 18.4 µM [cytotoxic, partial curve, poor fit].
In the case of `O=C(Nc1cccc(C(F)(F)F)c1)c1csc([C@@H]2O[C@H](CO)[C@@H](O)[C@H]2O)n1`, the Potency is reported as “inactive”.
For `COc1ccc(N2CC(NC(=O)c3ccc(S(=O)(=O)N4CCOCC4)cc3)CC2=O)cc1OC` (stereo not given), the Potency was “inactive”.
With `CCC(C)(C)n1nnnc1C(C(C)C)N(Cc1ccco1)Cc1cc2cc3c(cc2[nH]c1=O)OCO3` (stereo not given) the Potency was inconclusive: 23.1 µM [cytotoxic, single point].
For `CSc1nc2ccccc2cc1/C=C(\C#N)c1cccc(C)c1`, the Potency was active: 14.6 µM.
For `CCOC(=O)Cc1csc(NC(=O)NC2(C(F)(F)F)Oc3cc(Cl)c(Cl)cc3O2)n1`, the Potency was inconclusive: 23.1 µM [cytotoxic, single point].
In the case of `Cc1ccc(S(=O)(=O)NCCC2=CCCCC2)cc1C(N)=O`, the Potency is reported as “inactive”.
With `Cc1cc2ccccc2c[n+]1C` the Potency was inconclusive: 32.6 µM [cytotoxic, single point].
For `CCN(C(=O)COC(=O)CNC(=O)c1cccs1)c1c(N)n(Cc2ccccc2)c(=O)[nH]c1=O`, the Potency was “inactive”.
For `CC(Sc1nc(N)c2c3c(sc2n1)CSC(C)(C)C3)C(=O)Nc1ccccc1` (stereo not given), the Potency was inconclusive: 29.1 µM [cytotoxic, single point].
In the case of `Cc1cc(C)cc(N(CCC(=O)Nc2nnc(C)s2)S(=O)(=O)c2ccc(Cl)cc2)c1`, the Potency is reported as inconclusive: 7.31 µM [cytotoxic, partial curve].
With `CCN(CC)C(=O)CSc1nc2ccc(NC(=O)CSc3nnc(COc4ccccc4C)n3C)cc2s1` the Potency was “inactive”.
For `O=C1C=CC(=O)N1Cc1ccccc1`, the Potency was inconclusive: 23.1 µM [cytotoxic, partial curve, poor fit].
In the case of `COc1ccc(S(=O)(=O)N2CCOCC2)cc1NC(=O)CCCOc1ccc(Cl)cc1C`, the Potency is reported as “inactive”.
With `O=C(NCCCc1ccccc1)C1CCC(CNc2c(N3CCCCC3)c(=O)c2=O)CC1` (stereo not given) the activity change, negative = cytotoxic was inconclusive: -0.592%.
In the case of `COc1ccc(NC(=O)C2Cc3c(-c4cccc(NC(C)=O)c4)ccnc3O2)cn1` (stereo not given), the Potency is reported as active: 4.61 µM.
With `CCN(Cc1ccccc1)c1ncnc2c1nnn2C` the Potency was “inactive”.
In the case of `Cc1cc(C(=O)CSc2nnc(N)s2)c(C)n1CCc1ccc(F)cc1`, the Potency is reported as inconclusive: 29.1 µM [cytotoxic, partial curve, poor fit].
For `CCCS/C(N)=N/N=C/c1ccccc1O`, the Potency was inconclusive: 32.6 µM [cytotoxic, single point].
With `CCn1c(/C=C/Nc2ccccc2)[n+](CC)c2ccc(C(=O)OCC(F)(F)F)cc21` the Potency was active: 18.4 µM.
